# The supplement of paper PMC8728848
# This is one part of the list.
# B1: Blon0732mut (Bifidobacterium longum) (protein)
# chain: MPTSEHKADDATRHLTLIPAPVTLEYTHGTALIGPLVTIEDADQSWETLPIEQLSDELRHRYGVTVLRRRTHGTVISLGLDSRLAHDEYTLDVSESEGIRVRGGGESGLRYGLQTLRQIIGQTSRAIPCLHIQDKPAFAVRAYSLDVTRGRVPTMEFLTWFVDQLALYKYNQFQLYVEHAFAFVELSEAWRGTDPLTAADITYLDEYCARRGIELVPSLATFGHMYMNLRTREHRGLGEFPEDADRPFSFIERMEHHTLNAADPKAHDFASRLIEEYAPLFRSKSFNIGGNETFDLGRGRSAQDAPEAGRDELYAGFVRDLCETLARHGRQPMLWADIALESPRTMDLLPGDITMLNWMYEPQIDESKIQTIATQGRRQFVCPAVRAWSRFFPDYAGAWLNTYHMALAGTKYDAEGMVVTDWGDYGHVNDPRLSVPGLCYGAQNAWNPIEIDAHEMNRRISALVYGDESGRIMDCLARIDSDGVSFPWDLAVQVLELEYGSGTGALNMDVAACMERSSGGKLTLDRTLGCDDARRRMLQWNRERIERRRDCDQVLRDCGDAFAGLDKGGLTAEFLSVMLDGQRLFNELGEELLALADGKDVGSGANRLAADLELWFERYRAQWLSVGRHAELARIAHVVWSLADILRRGAL
# What was measured:
# Assay in all cases: glycan array binding signal (z-score within array); higher = stronger binding
# Conditions in all cases: glycan notation: IUPAC condensed, linker removed
# [1] = target: Neu5Ac(a2-3)Gal(b1-3)[Fuc(a1-4)]GlcNAc(b1-3)Gal(b1-3)[Fuc(a1-4)]GlcNAc
# Outline: (§1)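 The binding signal is a Z-score computed within each array and averaged over linkers. Arrays of the same protein sequence at different concentrations or buffers were also averaged together. Data originate from 3228 arrays in the Consortium for Functional Glycomics database, kept only where the protein sequence was available.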
# [2] = target: Neu5Ac(a2-3)Gal(b1-3)[Fuc(a1-4)]GlcNAc(b1-3)Gal(b1-4)[Fuc(a1-3)]GlcNAc
# Outline: as §1
# [3] = target: Neu5Ac(a2-3)Gal(b1-3)[GlcNAc(b1-6)]GalNAc
# Outline: as §1
# [4] = target: Neu5Ac(a2-3)Gal(b1-3)[Neu5Ac(a2-6)]GalNAc
# Outline: as §1
# [5] = target: Neu5Ac(a2-3)Gal(b1-3)[Neu5Ac(a2-6)]GlcNAc(b1-3)[Fuc(a1-3)[Gal(b1-4)]GlcNAc(b1-6)]Gal(b1-4)Glc
# Outline: as §1
# [6] = target: Neu5Ac(a2-3)Gal(b1-3)]Neu5Ac(a2-3)Gal(b1-4)]GlcNAc
# Outline: as §1
# Neu5Ac(a2-3)Gal(b1-4)Glc = target: Neu5Ac(a2-3)Gal(b1-4)Glc
# Outline: as §1
# [7] = target: Neu5Ac(a2-3)Gal(b1-4)GlcNAc
# Outline: as §1
# [8] = target: Neu5Ac(a2-3)Gal(b1-4)GlcNAc(b1-2)Man
# Outline: as §1
# [9] = target: Neu5Ac(a2-3)Gal(b1-4)GlcNAc(b1-2)Man(a1-3)[GlcNAc(b1-4)][Neu5Ac(a2-3)Gal(b1-4)GlcNAc(b1-2)Man(a1-6)]Man(b1-4)GlcNAc(b1-4)GlcNAc
# Outline: as §1
# [10] = target: Neu5Ac(a2-3)Gal(b1-4)GlcNAc(b1-2)Man(a1-3)[Neu5Ac(a2-3)Gal(b1-4)GlcNAc(b1-2)Man(a1-6)]Man(b1-4)GlcNAc(b1-4)GlcNAc
# Outline: as §1
# [11] = target: Neu5Ac(a2-3)Gal(b1-4)GlcNAc(b1-2)Man(a1-3)[Neu5Ac(a2-3)Gal(b1-4)GlcNAc(b1-2)Man(a1-6)]Man(b1-4)GlcNAc(b1-4)[Fuc(a1-6)]GlcNAc
# Outline: as §1
# [12] = target: Neu5Ac(a2-3)Gal(b1-4)GlcNAc(b1-2)Man(a1-3)[Neu5Ac(a2-6)Gal(b1-4)GlcNAc(b1-2)Man(a1-6)]Man(b1-4)GlcNAc(b1-4)GlcNAc
# Outline: as §1
# [13] = target: Neu5Ac(a2-3)Gal(b1-4)GlcNAc(b1-2)[Neu5Ac(a2-3)Gal(b1-4)GlcNAc(b1-2)]Man(a1-6)[Neu5Ac(a2-3)Gal(b1-4)GlcNAc(b1-2)Man(a1-3)][GlcNAc(b1-4)]Man(b1-4)GlcNAc(b1-4)GlcNAc
# Outline: as §1
# [14] = target: Neu5Ac(a2-3)Gal(b1-4)GlcNAc(b1-2)[Neu5Ac(a2-3)Gal(b1-4)GlcNAc(b1-4)]Man(a1-3)[GlcNAc(b1-4)][Neu5Ac(a2-3)Gal(b1-4)GlcNAc(b1-2)[Neu5Ac(a2-3)Gal(b1-4)GlcNAc(b1-6)]Man(a1-6)]Man(b1-4)GlcNAc(b1-4)GlcNAc
# Outline: as §1
# [15] = target: Neu5Ac(a2-3)Gal(b1-4)GlcNAc(b1-2)[Neu5Ac(a2-3)Gal(b1-4)GlcNAc(b1-4)]Man(a1-3)[GlcNAc(b1-4)][Neu5Ac(a2-3)Gal(b1-4)GlcNAc(b1-4)Man(a1-6)]Man(b1-4)GlcNAc(b1-4)GlcNAc
# Outline: as §1
# [16] = target: Neu5Ac(a2-3)Gal(b1-4)GlcNAc(b1-2)[Neu5Ac(a2-3)Gal(b1-4)GlcNAc(b1-6)]Man(a1-6)[Neu5Ac(a2-3)Gal(b1-4)GlcNAc(b1-2)Man(a1-3)]Man(b1-4)GlcNAc(b1-4)GlcNAc
# Outline: as §1
# [17] = target: Neu5Ac(a2-3)Gal(b1-4)GlcNAc(b1-3)Gal
# Outline: as §1
# [18] = target: Neu5Ac(a2-3)Gal(b1-4)GlcNAc(b1-3)Gal(b1-3)GlcNAc
# Outline: as §1
# [19] = target: Neu5Ac(a2-3)Gal(b1-4)GlcNAc(b1-3)Gal(b1-4)GlcNAc
# Outline: as §1
# [20] = target: Neu5Ac(a2-3)Gal(b1-4)GlcNAc(b1-3)Gal(b1-4)GlcNAc(b1-2)Man(a1-3)[Neu5Ac(a2-3)Gal(b1-4)GlcNAc(b1-3)Gal(b1-4)GlcNAc(b1-2)Man(a1-6)]Man(b1-4)GlcNAc(b1-4)GlcNAc
# Outline: as §1
# [21] = target: Neu5Ac(a2-3)Gal(b1-4)GlcNAc(b1-3)Gal(b1-4)GlcNAc(b1-3)Gal(b1-4)GlcNAc
# Outline: as §1
# [22] = target: Neu5Ac(a2-3)Gal(b1-4)GlcNAc(b1-3)Gal(b1-4)GlcNAc(b1-3)Gal(b1-4)GlcNAc(b1-2)Man(a1-3)[Neu5Ac(a2-3)Gal(b1-4)GlcNAc(b1-3)Gal(b1-4)GlcNAc(b1-3)Gal(b1-4)GlcNAc(b1-2)Man(a1-6)]GalNAc
# Outline: as §1
# [23] = target: Neu5Ac(a2-3)Gal(b1-4)GlcNAc(b1-3)Gal(b1-4)GlcNAc(b1-3)GalNAc
# Outline: as §1
# [24] = target: Neu5Ac(a2-3)Gal(b1-4)GlcNAc(b1-3)Gal(b1-4)GlcNAc(b1-3)[Neu5Ac(a2-3)Gal(b1-4)GlcNAc(b1-3)Gal(b1-4)GlcNAc(b1-6)]GalNAc
# Outline: as §1
# [25] = target: Neu5Ac(a2-3)Gal(b1-4)GlcNAc(b1-3)Gal(b1-4)GlcNAc(b1-6)[Gal(b1-3)]GalNAc
# Outline: as §1
# [26] = target: Neu5Ac(a2-3)Gal(b1-4)GlcNAc(b1-3)Gal(b1-4)[Fuc(a1-3)]GlcNAc
# Outline: as §1
# [27] = target: Neu5Ac(a2-3)Gal(b1-4)GlcNAc(b1-3)GalNAc
# Outline: as §1
# [28] = target: Neu5Ac(a2-3)Gal(b1-4)GlcNAc(b1-3)[Neu5Ac(a2-3)Gal(b1-4)GlcNAc(b1-6)]GalNAc
# Outline: as §1
# [29] = target: Neu5Ac(a2-3)Gal(b1-4)GlcNAc(b1-6)GalNAc
# Outline: as §1
binder,measurement,setting,value
B1,glycan array binding signal (z-score),[1],-0.898
same,glycan array binding signal (z-score),[2],-0.002
same,glycan array binding signal (z-score),[3],-0.681
same,glycan array binding signal (z-score),[4],-0.432
same,glycan array binding signal (z-score),[5],-1.23
same,glycan array binding signal (z-score),[6],0.088
same,glycan array binding signal (z-score),Neu5Ac(a2-3)Gal(b1-4)Glc,1.48
same,glycan array binding signal (z-score),[7],-0.536
same,glycan array binding signal (z-score),[8],0.751
same,glycan array binding signal (z-score),[9],-0.016
same,glycan array binding signal (z-score),[10],-0.083
same,glycan array binding signal (z-score),[11],-1.14
same,glycan array binding signal (z-score),[12],-0.363
same,glycan array binding signal (z-score),[13],-1.45
same,glycan array binding signal (z-score),[14],-0.492
same,glycan array binding signal (z-score),[15],-0.394
same,glycan array binding signal (z-score),[16],1.28
same,glycan array binding signal (z-score),[17],-0.904
same,glycan array binding signal (z-score),[18],-0.715
same,glycan array binding signal (z-score),[19],-0.293
same,glycan array binding signal (z-score),[20],-0.481
same,glycan array binding signal (z-score),[21],-0.809
same,glycan array binding signal (z-score),[22],0.615
same,glycan array binding signal (z-score),[23],-0.716
same,glycan array binding signal (z-score),[24],-0.21
same,glycan array binding signal (z-score),[25],-0.226
same,glycan array binding signal (z-score),[26],-0.546
same,glycan array binding signal (z-score),[27],-0.609
same,glycan array binding signal (z-score),[28],-0.434
same,glycan array binding signal (z-score),[29],-0.433

# Exported bar-delimited: entries from further up
binder | measurement | setting | value
B1 | glycan array binding signal (z-score) | [28] | -0.434
same | glycan array binding signal (z-score) | [29] | -0.433
